No constants are given. Whether binding was seen depends on the method and setting. Binding seen in cells or lysates may run through a third protein. Some entries that bind do so weakly or less than the wild type.
Target: T1, Syndecan-4 (mouse (endogenous in eWAT)) (UniProt O35988)
T1 sequence (chain, heparan sulfate chains): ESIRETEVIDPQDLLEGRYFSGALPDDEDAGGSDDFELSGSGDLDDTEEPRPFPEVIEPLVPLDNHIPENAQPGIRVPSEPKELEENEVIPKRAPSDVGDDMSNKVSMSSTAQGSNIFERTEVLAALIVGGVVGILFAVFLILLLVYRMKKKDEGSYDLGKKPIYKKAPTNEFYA
Test: co-IP; eWAT total protein (500 ug) of AT-Sdc4 KO and WT mice fed STC or HFD for 14 weeks; anti-Sdc4 polyclonal antibody or IgG (5 ug/ml) at 4 C overnight; protein A/G Plus-Agarose beads 3 h at room temperature; five washes with ice-cold lysis buffer; Western blot

Chains of the proteins cited; added tags and fusions are not shown. Residues count along the entry.
UniProt P15655, residues 10-154: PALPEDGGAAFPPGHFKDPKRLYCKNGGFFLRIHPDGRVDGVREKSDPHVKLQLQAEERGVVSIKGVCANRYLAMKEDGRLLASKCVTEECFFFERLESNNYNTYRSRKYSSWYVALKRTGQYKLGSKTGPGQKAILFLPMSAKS

binding: binds
Substance: fibroblast growth factor 2 (from UniProt P15655 10-154) (ligand)
